Experimental data as given in patent US9888688B2, “Tetrazolinone compounds and applications thereof” (Sumitomo Chemical Company, Limited, priority 2013, dated 2018).
Some of these results come from one statement about several compounds together. For some assays here: At least one compound was matched to its structure with a doubt left.

Key:
Assay type in all cases: in vivo
[1] = tested on: barley net blotch fungus (Pyrenophora teres); assay: Barley net blotch control test, foliar spray on barley (Test Examples 4, 16, 17, 18); conditions: barley NISHINOHOSHI, inoculated after 2 days
[2] = tested on: kidney bean stem rot fungus (Sclerotinia sclerotiorum); assay: Kidney bean stem rot control test, foliar spray on kidney bean (Test Examples 5, 22, 23); conditions: kidney bean NAGAUZURA NATANE, four days after inoculation
[3] = tested on: wheat leaf blotch fungus (Septoria tritici); assay: Wheat leaf blotch control test, spray before inoculation (Test Examples 6, 9, 10, Comparative Test Example); conditions: wheat APOGEE, inoculated after 4 days
[4] = tested on: wheat leaf blotch fungus (Septoria tritici); assay: Wheat leaf blotch control test, spray after inoculation (Test Example 8); conditions: 200 ppm foliar spray 3 days after inoculation, wheat APOGEE
[5] = tested on: barley scald fungus (Rhynchosporium secalis); assay: Barley scald control test, foliar spray on barley (Test Examples 20, 21); conditions: 200 ppm foliar spray, barley NISHINOHOSHI, inoculated after 2 days
[6] = tested on: cucumber corynespora leaf spot fungus (Corynespora cassicola); assay: Cucumber corynespora leaf spot control test (Test Examples 26, 27); conditions: cucumber SAGAMI HANJIRO, inoculated after one day, 7 days
[7] = tested on: cucumber anthracnose fungus (Colletotrichum lagenarium); assay: Cucumber anthracnose control test (Test Examples 28, 29); conditions: cucumber SAGAMI HANJIRO, inoculated after one day

Measured: area of lesion spots relative to that on an untreated plant

CCc1ccnc(-c2ccc(OCc3c(C4CC4)cccc3-n3nnn(C)c3=O)c(C)c2)n1 [Present Compound 143]
≤ 30%: [1]; 200 ppm foliar spray | [1]; 500 ppm foliar spray | [2]; 200 ppm foliar spray | [2]; 500 ppm foliar spray | [3]; 200 ppm foliar spray | [3]; 500 ppm foliar spray | [4] | [5] | [6]; 200 ppm foliar spray | [7]; 50 ppm foliar spray

Cc1ccnc(-c2ccc(OCc3c(C4CC4)cccc3-n3nnn(C)c3=O)c(C(F)(F)F)c2)n1 [Present Compound 135]
≤ 30%: [1]; 200 ppm foliar spray | [1]; 500 ppm foliar spray | [3]; 200 ppm foliar spray | [3]; 500 ppm foliar spray | [4] | [5] | [6]; 200 ppm foliar spray | [7]; 200 ppm foliar spray

COc1cccc(-n2nnn(C)c2=O)c1COc1ccc(-c2cccnc2)cc1C [Present Compound 65]
≤ 30%: [1]; 200 ppm foliar spray | [1]; 500 ppm foliar spray | [2]; 200 ppm foliar spray | [2]; 500 ppm foliar spray | [3]; 200 ppm foliar spray | [3]; 500 ppm foliar spray | [4] | [5] | [6]; 200 ppm foliar spray

COc1cccc(-n2nnn(C)c2=O)c1COc1ccc(-c2ccc(C)nc2)cc1C [Present Compound 73]
≤ 30%: [1]; 200 ppm foliar spray | [1]; 500 ppm foliar spray | [2]; 200 ppm foliar spray | [2]; 500 ppm foliar spray | [3]; 200 ppm foliar spray | [3]; 500 ppm foliar spray | [4] | [5] | [6]; 200 ppm foliar spray

Cc1cc(-c2cc(F)ccn2)c(C)cc1OCc1c(C)cccc1-n1nnn(C)c1=O [Present Compound 178]
≤ 30%: [2]; 200 ppm foliar spray | [2]; 500 ppm foliar spray | [3]; 200 ppm foliar spray | [3]; 500 ppm foliar spray | [4] | [5] | [6]; 200 ppm foliar spray | [7]; 200 ppm foliar spray

CCOc1cccc(-n2nnn(C)c2=O)c1COc1ccc(-c2nccc(C)n2)cc1C [Present Compound 94]
≤ 30%: [1]; 200 ppm foliar spray | [1]; 500 ppm foliar spray | [2]; 200 ppm foliar spray | [2]; 500 ppm foliar spray | [3]; 200 ppm foliar spray | [3]; 500 ppm foliar spray | [4] | [5] | [6]; 200 ppm foliar spray

Cc1ccnc(-c2ccc(OCc3c(C4CC4)cccc3-n3nnn(C)c3=O)c(C)c2)n1 [Present Compound 92]
≤ 30%: [1]; 200 ppm foliar spray | [1]; 500 ppm foliar spray | [2]; 200 ppm foliar spray | [2]; 500 ppm foliar spray | [3]; 200 ppm foliar spray | [3]; 500 ppm foliar spray | [4] | [5] | [6]; 50 ppm foliar spray

C=C(C)c1cccc(-c2ccc(OCc3c(C)cccc3-n3nnn(C)c3=O)c(C)c2)n1 [Present Compound 148]
≤ 30%: [1]; 200 ppm foliar spray | [1]; 500 ppm foliar spray | [3]; 200 ppm foliar spray | [4] | [5] | [6]; 200 ppm foliar spray | [7]; 200 ppm foliar spray

Cc1ccnc(-c2ccc(OCc3ccccc3-n3nnn(C)c3=O)c(C(F)(F)F)c2)n1 [Present Compound 137]
≤ 30%: [1]; 200 ppm foliar spray | [1]; 500 ppm foliar spray | [2]; 200 ppm foliar spray | [2]; 500 ppm foliar spray | [3]; 200 ppm foliar spray | [4] | [5] | [6]; 200 ppm foliar spray

Cc1cc(-c2ncc(F)cn2)ccc1OCc1c(C)cccc1-n1nnn(C)c1=O [Present Compound 236]
≤ 30%: [1]; 200 ppm foliar spray | [1]; 500 ppm foliar spray | [2]; 200 ppm foliar spray | [2]; 500 ppm foliar spray | [4] | [5] | [6]; 200 ppm foliar spray | [7]; 200 ppm foliar spray

CCOc1cccc(-n2nnn(C)c2=O)c1COc1ccc(-c2ccccn2)cc1C [Present Compound 8]
≤ 30%: [1]; 200 ppm foliar spray | [2]; 200 ppm foliar spray | [2]; 500 ppm foliar spray | [3]; 200 ppm foliar spray | [3]; 500 ppm foliar spray | [4] | [5] | [6]; 50 ppm foliar spray

Cc1cc(-c2ncccc2C)ccc1OCc1c(C)cccc1-n1nnn(C)c1=O [Present Compound 12]
≤ 30%: [1]; 200 ppm foliar spray | [1]; 500 ppm foliar spray | [2]; 500 ppm foliar spray | [3]; 200 ppm foliar spray | [3]; 500 ppm foliar spray | [4] | [5] | [6]; 200 ppm foliar spray

Cc1cc(-c2ncc(Cl)cn2)ccc1OCc1c(C)cccc1-n1nnn(C)c1=O [Present Compound 237]
≤ 30%: [1]; 200 ppm foliar spray | [1]; 500 ppm foliar spray | [2]; 500 ppm foliar spray | [4] | [5] | [6]; 200 ppm foliar spray | [7]; 200 ppm foliar spray

Cc1cc(-c2cncc(Cl)c2)ccc1OCc1c(C)cccc1-n1nnn(C)c1=O [Present Compound 110]
≤ 30%: [1]; 200 ppm foliar spray | [1]; 500 ppm foliar spray | [2]; 500 ppm foliar spray | [3]; 200 ppm foliar spray | [3]; 500 ppm foliar spray | [4] | [5] | [6]; 200 ppm foliar spray

CCc1cccc(-n2nnn(C)c2=O)c1COc1ccc(-c2cccnc2)cc1C [Present Compound 62]
≤ 30%: [1]; 200 ppm foliar spray | [1]; 500 ppm foliar spray | [2]; 200 ppm foliar spray | [2]; 500 ppm foliar spray | [3]; 200 ppm foliar spray | [3]; 500 ppm foliar spray | [4] | [5] | [6]; 50 ppm foliar spray

CCc1cc(-c2cccc(C)n2)ccc1OCc1c(C)cccc1-n1nnn(C)c1=O [Present Compound 101]
≤ 30%: [1]; 200 ppm foliar spray | [1]; 500 ppm foliar spray | [2]; 200 ppm foliar spray | [2]; 500 ppm foliar spray | [3]; 200 ppm foliar spray | [3]; 500 ppm foliar spray | [4] | [5] | [7]; 200 ppm foliar spray

Cc1cc(-c2cc(Cl)ccn2)ccc1OCc1c(C2CC2)cccc1-n1nnn(C)c1=O [Present Compound 15]
≤ 30%: [1]; 200 ppm foliar spray | [1]; 500 ppm foliar spray | [2]; 200 ppm foliar spray | [2]; 500 ppm foliar spray | [3]; 200 ppm foliar spray | [3]; 500 ppm foliar spray | [4] | [5] | [6]; 200 ppm foliar spray
